The list shows a part of the results.
Legend:
Assay in all cases: log2 fold change, soluble protein after heating vs DMSO (PISA); higher = thermal stabilisation; K562 lysate, 10 uM; active = over 0.2 and 3.5 SD of the protein, either way, in both replicates (recomputed)
lapatinib = compound: CS(=O)(=O)CCNCc1ccc(-c2ccc3ncnc(Nc4ccc(OCc5cccc(F)c5)c(Cl)c4)c3c2)o1 [lapatinib]
In short: (§1)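 To prepare the extract, K562 pellets were dounce-homogenised in PBS pH 7.4 with 1 mM MgCl2, giving crude material at 1 mg/mL protein. This was treated with 10 μM compound for 30 min, then heated in aliquots for 3 min over 48°C-58°C before pooling and addition of NP-40 to 0.5% at 4°C. Centrifugation at 21,000xg for 90 min left soluble protein in the supernatant, which TMTpro 16plex LC-MS/MS quantified with equalised channel sums. Results are log-two fold changes in thermal stability compared with solvent controls, from duplicates.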

The chains behind the UniProt entries cited, without tags or fusion partners. Where a name states a change or a piece, a line headed by the entry shows the natural chain unless it says otherwise.
UniProt Q86X53: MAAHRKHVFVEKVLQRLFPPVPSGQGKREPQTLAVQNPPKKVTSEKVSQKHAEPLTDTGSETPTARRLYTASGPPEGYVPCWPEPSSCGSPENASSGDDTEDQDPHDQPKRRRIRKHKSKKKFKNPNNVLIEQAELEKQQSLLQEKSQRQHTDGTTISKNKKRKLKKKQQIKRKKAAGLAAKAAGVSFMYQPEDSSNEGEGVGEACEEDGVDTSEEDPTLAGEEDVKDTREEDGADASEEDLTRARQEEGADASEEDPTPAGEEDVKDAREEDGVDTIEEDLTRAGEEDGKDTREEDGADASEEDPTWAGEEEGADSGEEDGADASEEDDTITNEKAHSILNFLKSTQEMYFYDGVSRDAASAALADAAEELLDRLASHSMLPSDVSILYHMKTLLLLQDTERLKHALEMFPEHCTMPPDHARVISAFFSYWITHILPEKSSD
UniProt O60645: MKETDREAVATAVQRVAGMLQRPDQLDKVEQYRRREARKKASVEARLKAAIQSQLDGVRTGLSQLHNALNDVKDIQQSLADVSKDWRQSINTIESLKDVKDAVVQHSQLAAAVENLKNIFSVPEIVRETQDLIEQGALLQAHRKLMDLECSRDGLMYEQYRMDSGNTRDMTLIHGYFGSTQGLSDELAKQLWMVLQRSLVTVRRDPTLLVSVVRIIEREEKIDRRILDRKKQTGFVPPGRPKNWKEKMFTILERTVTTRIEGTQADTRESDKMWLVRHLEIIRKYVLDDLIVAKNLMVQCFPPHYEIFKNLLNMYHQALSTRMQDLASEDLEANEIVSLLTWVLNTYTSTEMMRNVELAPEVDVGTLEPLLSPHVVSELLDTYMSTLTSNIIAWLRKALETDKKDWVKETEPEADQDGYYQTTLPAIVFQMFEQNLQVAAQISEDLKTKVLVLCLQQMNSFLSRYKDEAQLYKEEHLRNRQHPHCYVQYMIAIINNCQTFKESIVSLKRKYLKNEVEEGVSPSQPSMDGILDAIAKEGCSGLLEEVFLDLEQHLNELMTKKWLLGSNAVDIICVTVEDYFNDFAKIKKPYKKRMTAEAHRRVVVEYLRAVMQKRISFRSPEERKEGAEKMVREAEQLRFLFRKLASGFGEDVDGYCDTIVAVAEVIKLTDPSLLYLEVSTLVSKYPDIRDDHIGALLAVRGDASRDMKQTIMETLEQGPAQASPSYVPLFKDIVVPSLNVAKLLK
UniProt Q9UPT5: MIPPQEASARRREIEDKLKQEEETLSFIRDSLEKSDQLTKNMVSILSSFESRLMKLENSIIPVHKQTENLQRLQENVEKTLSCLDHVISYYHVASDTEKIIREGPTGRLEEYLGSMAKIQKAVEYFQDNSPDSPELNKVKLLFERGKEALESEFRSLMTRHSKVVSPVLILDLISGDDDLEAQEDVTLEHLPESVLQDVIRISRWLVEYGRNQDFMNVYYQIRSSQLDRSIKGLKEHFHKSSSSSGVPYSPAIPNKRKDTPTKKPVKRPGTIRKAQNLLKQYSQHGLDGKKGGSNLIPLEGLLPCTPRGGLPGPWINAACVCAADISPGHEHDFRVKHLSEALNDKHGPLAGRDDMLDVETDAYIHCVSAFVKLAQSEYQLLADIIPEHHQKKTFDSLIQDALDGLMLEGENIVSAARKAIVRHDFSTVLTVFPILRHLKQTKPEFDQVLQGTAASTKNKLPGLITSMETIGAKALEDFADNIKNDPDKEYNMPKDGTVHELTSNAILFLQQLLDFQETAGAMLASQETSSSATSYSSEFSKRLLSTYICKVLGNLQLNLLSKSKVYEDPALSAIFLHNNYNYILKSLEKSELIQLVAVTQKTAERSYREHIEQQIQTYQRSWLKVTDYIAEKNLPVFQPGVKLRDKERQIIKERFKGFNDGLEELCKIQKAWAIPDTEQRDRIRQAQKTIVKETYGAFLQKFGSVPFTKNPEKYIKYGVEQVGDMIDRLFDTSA
UniProt Q9Y624, whole entry, looked up, stated change not applied: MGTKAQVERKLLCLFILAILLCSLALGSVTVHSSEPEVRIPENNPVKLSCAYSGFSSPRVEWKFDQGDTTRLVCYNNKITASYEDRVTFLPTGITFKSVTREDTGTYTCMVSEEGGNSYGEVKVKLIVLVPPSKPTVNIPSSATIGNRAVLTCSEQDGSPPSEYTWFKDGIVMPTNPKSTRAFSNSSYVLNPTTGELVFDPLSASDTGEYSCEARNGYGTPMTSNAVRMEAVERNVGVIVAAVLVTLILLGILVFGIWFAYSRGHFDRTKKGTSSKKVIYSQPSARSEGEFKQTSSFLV
UniProt O94905: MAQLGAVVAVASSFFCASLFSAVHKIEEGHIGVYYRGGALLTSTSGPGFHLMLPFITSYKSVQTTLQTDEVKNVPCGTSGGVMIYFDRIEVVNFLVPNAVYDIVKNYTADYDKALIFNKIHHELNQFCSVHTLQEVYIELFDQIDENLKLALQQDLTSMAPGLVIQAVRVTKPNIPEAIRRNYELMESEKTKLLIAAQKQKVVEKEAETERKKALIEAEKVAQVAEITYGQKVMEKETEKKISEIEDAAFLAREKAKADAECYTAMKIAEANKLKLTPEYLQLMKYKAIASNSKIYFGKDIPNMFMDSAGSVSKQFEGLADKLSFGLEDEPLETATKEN
UniProt O60447: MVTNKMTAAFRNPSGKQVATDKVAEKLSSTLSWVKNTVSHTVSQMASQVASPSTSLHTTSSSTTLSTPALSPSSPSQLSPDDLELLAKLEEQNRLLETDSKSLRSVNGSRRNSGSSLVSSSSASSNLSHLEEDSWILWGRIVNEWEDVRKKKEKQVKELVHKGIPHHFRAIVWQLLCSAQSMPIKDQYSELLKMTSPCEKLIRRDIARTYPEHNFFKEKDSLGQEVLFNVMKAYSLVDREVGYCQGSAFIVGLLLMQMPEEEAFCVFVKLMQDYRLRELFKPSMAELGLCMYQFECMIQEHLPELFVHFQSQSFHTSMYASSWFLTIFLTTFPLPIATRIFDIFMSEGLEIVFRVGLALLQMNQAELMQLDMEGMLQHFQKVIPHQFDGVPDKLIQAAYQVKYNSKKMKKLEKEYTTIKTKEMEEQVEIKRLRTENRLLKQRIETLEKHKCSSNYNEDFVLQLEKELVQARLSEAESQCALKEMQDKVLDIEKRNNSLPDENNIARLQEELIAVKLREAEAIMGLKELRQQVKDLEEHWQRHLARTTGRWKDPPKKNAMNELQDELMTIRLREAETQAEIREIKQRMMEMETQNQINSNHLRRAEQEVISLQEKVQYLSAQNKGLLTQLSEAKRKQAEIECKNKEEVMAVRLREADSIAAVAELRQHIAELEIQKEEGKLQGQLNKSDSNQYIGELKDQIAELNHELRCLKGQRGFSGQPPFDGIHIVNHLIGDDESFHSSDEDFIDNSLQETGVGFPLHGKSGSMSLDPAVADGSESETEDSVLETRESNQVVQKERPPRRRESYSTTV
UniProt Q01844: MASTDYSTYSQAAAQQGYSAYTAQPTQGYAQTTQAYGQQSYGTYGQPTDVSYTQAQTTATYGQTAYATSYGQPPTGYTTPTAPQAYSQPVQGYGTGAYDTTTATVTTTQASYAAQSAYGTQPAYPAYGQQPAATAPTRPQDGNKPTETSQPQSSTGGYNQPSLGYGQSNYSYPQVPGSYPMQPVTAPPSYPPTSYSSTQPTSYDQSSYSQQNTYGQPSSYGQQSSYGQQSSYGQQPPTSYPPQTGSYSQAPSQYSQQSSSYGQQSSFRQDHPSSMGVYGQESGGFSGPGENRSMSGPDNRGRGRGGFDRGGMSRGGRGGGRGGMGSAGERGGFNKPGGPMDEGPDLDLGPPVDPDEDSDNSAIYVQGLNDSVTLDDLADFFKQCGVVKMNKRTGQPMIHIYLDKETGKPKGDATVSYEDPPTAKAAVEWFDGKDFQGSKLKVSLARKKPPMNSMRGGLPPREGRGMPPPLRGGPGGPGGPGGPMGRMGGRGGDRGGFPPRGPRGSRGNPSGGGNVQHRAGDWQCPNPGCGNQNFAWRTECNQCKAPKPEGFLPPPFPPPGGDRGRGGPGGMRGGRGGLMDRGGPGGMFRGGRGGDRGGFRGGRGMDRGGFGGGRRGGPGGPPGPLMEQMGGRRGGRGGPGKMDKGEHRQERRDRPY
UniProt O95571: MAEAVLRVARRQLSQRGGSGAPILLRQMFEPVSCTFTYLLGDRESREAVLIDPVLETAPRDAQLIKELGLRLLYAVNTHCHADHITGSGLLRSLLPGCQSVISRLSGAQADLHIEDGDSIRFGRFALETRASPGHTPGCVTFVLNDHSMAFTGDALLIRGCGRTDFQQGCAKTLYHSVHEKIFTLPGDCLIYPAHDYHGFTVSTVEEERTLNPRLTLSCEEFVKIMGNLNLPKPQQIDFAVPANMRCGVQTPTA
UniProt Q9NWS6: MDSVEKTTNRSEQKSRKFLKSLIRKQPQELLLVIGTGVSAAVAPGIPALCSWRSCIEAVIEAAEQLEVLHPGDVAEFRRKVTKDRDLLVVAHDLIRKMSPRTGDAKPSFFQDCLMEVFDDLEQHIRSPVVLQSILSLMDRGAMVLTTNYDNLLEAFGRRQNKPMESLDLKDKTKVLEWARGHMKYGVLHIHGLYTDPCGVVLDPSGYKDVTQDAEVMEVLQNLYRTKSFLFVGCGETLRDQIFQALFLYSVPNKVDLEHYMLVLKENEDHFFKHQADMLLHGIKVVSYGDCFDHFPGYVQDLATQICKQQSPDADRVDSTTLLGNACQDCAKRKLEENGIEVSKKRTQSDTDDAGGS
UniProt Q9NZB2: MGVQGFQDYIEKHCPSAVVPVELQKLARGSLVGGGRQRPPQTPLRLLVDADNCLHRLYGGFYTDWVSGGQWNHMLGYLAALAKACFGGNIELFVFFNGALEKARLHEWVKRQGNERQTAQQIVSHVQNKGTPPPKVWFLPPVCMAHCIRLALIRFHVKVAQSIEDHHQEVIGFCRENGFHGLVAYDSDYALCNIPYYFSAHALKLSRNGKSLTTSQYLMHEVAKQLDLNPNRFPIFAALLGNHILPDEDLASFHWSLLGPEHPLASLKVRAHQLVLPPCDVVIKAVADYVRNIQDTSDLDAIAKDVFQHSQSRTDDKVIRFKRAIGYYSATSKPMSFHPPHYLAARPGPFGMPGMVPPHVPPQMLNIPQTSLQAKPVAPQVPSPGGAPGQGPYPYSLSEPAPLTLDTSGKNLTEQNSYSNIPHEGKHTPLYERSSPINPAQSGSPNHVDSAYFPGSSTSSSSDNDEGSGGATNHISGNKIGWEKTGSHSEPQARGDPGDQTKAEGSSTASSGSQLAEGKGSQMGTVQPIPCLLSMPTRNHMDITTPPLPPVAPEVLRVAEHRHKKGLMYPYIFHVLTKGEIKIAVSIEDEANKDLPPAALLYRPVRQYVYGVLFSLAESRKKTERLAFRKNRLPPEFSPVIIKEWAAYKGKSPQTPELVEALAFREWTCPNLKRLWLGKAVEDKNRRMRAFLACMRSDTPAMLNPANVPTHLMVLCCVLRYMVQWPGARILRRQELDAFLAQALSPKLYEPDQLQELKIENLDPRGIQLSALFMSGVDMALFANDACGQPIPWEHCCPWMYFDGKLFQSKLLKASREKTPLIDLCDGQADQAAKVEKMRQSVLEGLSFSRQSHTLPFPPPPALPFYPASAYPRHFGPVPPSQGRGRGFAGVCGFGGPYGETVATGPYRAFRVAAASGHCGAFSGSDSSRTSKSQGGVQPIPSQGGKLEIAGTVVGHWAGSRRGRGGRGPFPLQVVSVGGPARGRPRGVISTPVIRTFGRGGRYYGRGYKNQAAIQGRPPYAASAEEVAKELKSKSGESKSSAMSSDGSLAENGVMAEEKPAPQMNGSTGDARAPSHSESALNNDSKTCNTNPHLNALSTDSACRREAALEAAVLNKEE
UniProt Q9NYF3: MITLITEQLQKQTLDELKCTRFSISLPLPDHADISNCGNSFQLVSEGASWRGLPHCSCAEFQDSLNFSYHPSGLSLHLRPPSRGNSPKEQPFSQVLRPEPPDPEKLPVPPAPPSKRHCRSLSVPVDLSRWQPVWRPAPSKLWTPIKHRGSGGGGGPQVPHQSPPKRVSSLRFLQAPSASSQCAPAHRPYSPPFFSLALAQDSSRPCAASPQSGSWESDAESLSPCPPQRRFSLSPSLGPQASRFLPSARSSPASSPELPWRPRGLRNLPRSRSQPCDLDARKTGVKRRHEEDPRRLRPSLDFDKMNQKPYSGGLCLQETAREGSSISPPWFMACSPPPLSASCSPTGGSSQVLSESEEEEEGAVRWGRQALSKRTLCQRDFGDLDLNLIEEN
UniProt Q06265, whole entry, looked up: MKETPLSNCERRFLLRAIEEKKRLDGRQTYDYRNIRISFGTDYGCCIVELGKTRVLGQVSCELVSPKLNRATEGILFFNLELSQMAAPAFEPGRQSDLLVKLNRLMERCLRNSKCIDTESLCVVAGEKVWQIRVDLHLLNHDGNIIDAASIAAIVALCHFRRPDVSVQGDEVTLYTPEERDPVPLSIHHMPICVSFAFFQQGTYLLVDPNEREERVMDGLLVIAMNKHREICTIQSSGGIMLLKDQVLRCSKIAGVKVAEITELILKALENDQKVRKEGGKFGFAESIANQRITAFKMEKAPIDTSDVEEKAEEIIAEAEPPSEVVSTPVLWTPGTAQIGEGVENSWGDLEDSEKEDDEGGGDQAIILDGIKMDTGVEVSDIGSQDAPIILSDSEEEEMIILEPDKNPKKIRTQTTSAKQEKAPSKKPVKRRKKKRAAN

pictilisib = compound: CS(=O)(=O)N1CCN(Cc2cc3nc(-c4cccc5[nH]ncc45)nc(N4CCOCC4)c3s2)CC1 [pictilisib]
In short: as §1

crizotinib = compound: C[C@@H](Oc1cc(-c2cnn(C3CCNCC3)c2)cnc1N)c1c(Cl)ccc(F)c1Cl [crizotinib]
In short: as §1

[1] = compound: C[C@H](C1=CC=C(C=C1)C(=O)NC2=C3C=CNC3=NC=C2)N
In short: as §1

duvelisib = compound: C[C@H](Nc1ncnc2nc[nH]c12)c1cc2cccc(Cl)c2c(=O)n1-c1ccccc1 [duvelisib]
In short: as §1

gandotinib = compound: Cc1cc(Nc2cc(CN3CCOCC3)c3nc(C)c(Cc4ccc(Cl)cc4F)n3n2)n[nH]1 [gandotinib]
In short: as §1

tozasertib = compound: Cc1cc(Nc2cc(N3CCN(C)CC3)nc(Sc3ccc(NC(=O)C4CC4)cc3)n2)n[nH]1 [tozasertib]
In short: as §1

doramapimod = compound: Cc1ccc(-n2nc(C(C)(C)C)cc2NC(=O)Nc2ccc(OCCN3CCOCC3)c3ccccc23)cc1 [doramapimod]
In short: as §1

bafetinib = compound: Cc1ccc(NC(=O)c2ccc(CN3CC[C@H](N(C)C)C3)c(C(F)(F)F)c2)cc1Nc1nccc(-c2cncnc2)n1 [bafetinib]
In short: as §1

[2] = compound: Cc1cccc(CC(=O)N2CCc3c2ccc(-c2cn(C)c4ncnc(N)c24)c3F)n1
In short: as §1

nilotinib = compound: Cc1cn(-c2cc(NC(=O)c3ccc(C)c(Nc4nccc(-c5cccnc5)n4)c3)cc(C(F)(F)F)c2)cn1 [nilotinib]
In short: as §1

[3] = compound: Cc1nc(Nc2n[nH]c3c2CN(C(=O)N[C@H](CN(C)C)c2ccccc2)C3(C)C)c2sccc2n1
In short: as §1

dasatinib = compound: Cc1nc(Nc2ncc(C(=O)Nc3c(C)cccc3Cl)s2)cc(N2CCN(CCO)CC2)n1 [dasatinib]
In short: as §1

[4] = compound: Cc1ncc(-c2ccnc(Nc3ccc(S(C)(=O)=O)cc3)n2)n1C(C)C
In short: as §1

[5] = compound: Cn1cc(-c2ccc3c(c2)CCN3C(=O)Cc2cccc(C(F)(F)F)c2)c2c(N)ncnc21
In short: as §1

quisinostat = compound: Cn1cc(CNCC2CCN(c3ncc(C(=O)NO)cn3)CC2)c2ccccc21 [quisinostat]
In short: as §1

tipifarnib = compound: Cn1cncc1[C@@](N)(c1ccc(Cl)cc1)c1ccc2c(c1)c(-c1cccc(Cl)c1)cc(=O)n2C [tipifarnib]
In short: as §1

[6] = compound: NC(=O)Nc1cc(-c2cccc(F)c2)sc1C(=O)N[C@H]1CCCNC1
In short: as §1

[7] = compound: NC(=O)c1cnc(N[C@@H]2CCCC[C@@H]2N)nc1Nc1cccc(-n2nccn2)c1
In short: as §1

[8] = compound: NC1(c2ccc(-c3nc4ccn5c(=O)[nH]nc5c4cc3-c3ccccc3)cc2)CCC1
In short: as §1

Measured: log2 fold change

ERICH1 (UniProt Q86X53)
inactive: lapatinib -0.274 | pictilisib -0.038 | crizotinib -0.017 | [1] 0.12 | duvelisib 0.069 | gandotinib -0.201 | tozasertib -0.08 | doramapimod -0.035 | bafetinib -0.51 | [2] -0.008 | nilotinib -0.07 | [3] -0.111 | dasatinib 0.059 | [4] 0.067 | [5] 0.073 | quisinostat -0.07 | tipifarnib -0.153 | [6] -0.017 | [7] 0.117 | [8] 0.064

EXOSC6 (UniProt Q5RKV6)
inactive: lapatinib -0.023 | pictilisib 0.026 | crizotinib -0.012 | [1] -0.014 | duvelisib 0.031 | gandotinib 0.067 | tozasertib 0.017 | doramapimod 0.025 | bafetinib 0.009 | [2] -0.003 | nilotinib 0.023 | [3] -0.014 | dasatinib 0 | [4] 0 | [5] -0.01 | quisinostat 0.014 | tipifarnib 0.023 | [6] 0.002 | [7] -0.028 | [8] -0.008

EXOC3 (UniProt O60645)
inactive: lapatinib -0.037 | pictilisib -0.033 | crizotinib -0.133 | [1] 0.016 | duvelisib -0.039 | gandotinib -0.098 | tozasertib 0.019 | doramapimod 0.041 | bafetinib -0.094 | [2] 0.019 | nilotinib -0.013 | [3] 0.012 | dasatinib -0.06 | [4] 0.039 | [5] 0.021 | quisinostat -0.115 | tipifarnib -0.018 | [6] 0.063 | [7] 0.005 | [8] -0.005

EXOC7 (UniProt Q9UPT5)
inactive: lapatinib -0.029 | pictilisib 0.005 | crizotinib -0.076 | [1] -0.079 | duvelisib 0 | gandotinib -0.067 | tozasertib 0.015 | doramapimod 0.004 | bafetinib -0.03 | [2] 0.09 | nilotinib -0.004 | [3] 0.014 | dasatinib -0.083 | [4] 0.012 | [5] 0.001 | quisinostat -0.021 | tipifarnib -0.036 | [6] 0.012 | [7] 0.007 | [8] -0.037

F11R (UniProt Q9Y624)
inactive: lapatinib -0.005 | pictilisib -0.016 | crizotinib 0.045 | [1] -0.143 | duvelisib 0.013 | gandotinib 0.073 | tozasertib -0.014 | doramapimod -0.035 | bafetinib -0.003 | [2] 0.016 | nilotinib 0.042 | [3] 0.064 | dasatinib 0.02 | [4] 0.03 | [5] -0.001 | quisinostat -0.036 | tipifarnib -0.034 | [6] 0.034 | [7] -0.007 | [8] 0.018

EZR (UniProt P15311)
inactive: lapatinib -0.011 | pictilisib -0.011 | crizotinib 0.036 | [1] 0.118 | duvelisib -0.036 | gandotinib -0.03 | tozasertib -0.011 | doramapimod 0.005 | bafetinib 0.006 | [2] -0.084 | nilotinib 0.022 | [3] -0.017 | dasatinib 0.009 | [4] -0.005 | [5] -0.024 | quisinostat 0.055 | tipifarnib 0.022 | [6] -0.012 | [7] -0.01 | [8] 0.016

ERLIN2 (UniProt O94905)
active: [1] 0.304
inactive: lapatinib -0.015 | pictilisib -0.091 | crizotinib -0.004 | duvelisib 0.003 | gandotinib -0.077 | tozasertib 0.02 | doramapimod 0.043 | bafetinib -0.015 | [2] -0.114 | nilotinib -0.009 | [3] 0.001 | dasatinib -0.013 | [4] -0.019 | [5] 0.03 | quisinostat 0.021 | tipifarnib 0.012 | [6] -0.038 | [7] 0.012 | [8] -0.01

2 records drawn at random from the list so far, as already listed:
EZR (UniProt P15311)
inactive: lapatinib -0.011 | pictilisib -0.011 | crizotinib 0.036 | [1] 0.118 | duvelisib -0.036 | gandotinib -0.03 | tozasertib -0.011 | doramapimod 0.005 | bafetinib 0.006 | [2] -0.084 | nilotinib 0.022 | [3] -0.017 | dasatinib 0.009 | [4] -0.005 | [5] -0.024 | quisinostat 0.055 | tipifarnib 0.022 | [6] -0.012 | [7] -0.01 | [8] 0.016

EXOC7 (UniProt Q9UPT5)
inactive: lapatinib -0.029 | pictilisib 0.005 | crizotinib -0.076 | [1] -0.079 | duvelisib 0 | gandotinib -0.067 | tozasertib 0.015 | doramapimod 0.004 | bafetinib -0.03 | [2] 0.09 | nilotinib -0.004 | [3] 0.014 | dasatinib -0.083 | [4] 0.012 | [5] 0.001 | quisinostat -0.021 | tipifarnib -0.036 | [6] 0.012 | [7] 0.007 | [8] -0.037

Later entries.

EVI5 isoform 2 (UniProt O60447)
inactive: lapatinib -0.07 | pictilisib -0.051 | crizotinib -0.158 | [1] -0.025 | duvelisib -0.085 | gandotinib -0.109 | tozasertib -0.024 | doramapimod 0.28 | bafetinib 0.083 | [2] 0.124 | nilotinib -0.005 | [3] -0.071 | dasatinib -0.143 | [4] 0.109 | [5] 0.109 | quisinostat -0.068 | tipifarnib 0.012 | [6] 0.083 | [7] 0.07 | [8] 0.052

EXOSC5 (UniProt Q9NQT4)
inactive: lapatinib -0.032 | pictilisib 0.017 | crizotinib 0.027 | [1] -0.004 | duvelisib 0.005 | gandotinib 0.006 | tozasertib 0.01 | doramapimod -0.01 | bafetinib -0.009 | [2] 0.02 | nilotinib 0.019 | [3] -0.023 | dasatinib -0.032 | [4] 0.017 | [5] 0.017 | quisinostat 0.042 | tipifarnib -0.002 | [6] -0.021 | [7] 0.002 | [8] 0.003

EWSR1 isoform 5 (UniProt Q01844)
active: nilotinib -0.766
inactive: lapatinib -0.008 | pictilisib 0.021 | crizotinib 0.048 | [1] -0.07 | duvelisib -0.047 | gandotinib 0.061 | tozasertib -0.016 | doramapimod -0.025 | bafetinib 0.031 | [2] 0.009 | [3] 0.019 | dasatinib 0.004 | [4] 0.036 | [5] -0.049 | quisinostat -0.025 | tipifarnib 0.082 | [6] 0.013 | [7] -0.002 | [8] 0.024

ETHE1 (UniProt O95571)
active: nilotinib 0.25
inactive: lapatinib 0.049 | pictilisib -0.049 | crizotinib -0.022 | [1] -0.034 | duvelisib -0.011 | gandotinib 0.016 | tozasertib -0.06 | doramapimod 0.005 | bafetinib 0.038 | [2] 0.018 | [3] -0.124 | dasatinib -0.037 | [4] 0.095 | [5] -0.046 | quisinostat -0.015 | tipifarnib -0.181 | [6] 0.055 | [7] 0 | [8] -0.002

FAM118A (UniProt Q9NWS6)
inactive: lapatinib 0.02 | pictilisib -0.006 | crizotinib -0.054 | [1] -0.09 | duvelisib 0.019 | gandotinib 0.002 | tozasertib -0.016 | doramapimod -0.013 | bafetinib -0.059 | [2] 0.118 | nilotinib -0.017 | [3] -0.03 | dasatinib -0.043 | [4] -0.003 | [5] -0.082 | quisinostat -0.103 | tipifarnib 0.016 | [6] 0.013 | [7] 0.003 | [8] -0.023

FAM120A isoform 6 (UniProt Q9NZB2)
inactive: lapatinib -0.011 | pictilisib -0.031 | crizotinib -0.041 | [1] 0 | duvelisib 0.007 | gandotinib -0.04 | tozasertib 0 | doramapimod -0.025 | bafetinib 0.01 | [2] 0.014 | nilotinib -0.029 | [3] -0.024 | dasatinib -0.033 | [4] 0.03 | [5] 0 | quisinostat -0.007 | tipifarnib 0.012 | [6] 0.01 | [7] -0.01 | [8] 0.01

ESPL1 (UniProt Q14674)
inactive: lapatinib 0.053 | pictilisib 0.07 | crizotinib -0.015 | [1] 0.027 | duvelisib -0.011 | gandotinib 0.026 | tozasertib 0.024 | doramapimod -0.044 | bafetinib -0.077 | [2] 0.057 | nilotinib -0.013 | [3] 0.006 | dasatinib 0.044 | [4] 0.054 | [5] 0.02 | quisinostat 0.066 | tipifarnib -0.024 | [6] 0.021 | [7] -0.014 | [8] -0.055

FAM53C (UniProt Q9NYF3)
inactive: lapatinib -0.101 | pictilisib 0.056 | crizotinib 0.02 | [1] 0.08 | duvelisib -0.044 | gandotinib 0.075 | tozasertib 0.029 | doramapimod 0.05 | bafetinib -0.101 | [2] 0.052 | nilotinib -0.099 | [3] -0.212 | dasatinib -0.074 | [4] 0.204 | [5] -0.019 | quisinostat -0.09 | tipifarnib -0.13 | [6] -0.009 | [7] -0.169 | [8] -0.043

EXOSC9 (UniProt Q06265)
inactive: lapatinib -0.01 | pictilisib 0.029 | crizotinib 0.009 | [1] 0.039 | duvelisib 0.023 | gandotinib 0.007 | tozasertib -0.007 | doramapimod -0.007 | bafetinib -0.002 | [2] -0.016 | nilotinib -0.002 | [3] 0.015 | dasatinib -0.026 | [4] 0.035 | [5] 0.005 | quisinostat 0 | tipifarnib -0.013 | [6] -0.023 | [7] -0.008 | [8] -0.018

Reference: the supplement of paper PMC10849652
